# Test results taken from paper PMC11252818.
# By UniProt entry, the sequences of proteins in these tests, tags left out.
# UniProt Q9UPY5: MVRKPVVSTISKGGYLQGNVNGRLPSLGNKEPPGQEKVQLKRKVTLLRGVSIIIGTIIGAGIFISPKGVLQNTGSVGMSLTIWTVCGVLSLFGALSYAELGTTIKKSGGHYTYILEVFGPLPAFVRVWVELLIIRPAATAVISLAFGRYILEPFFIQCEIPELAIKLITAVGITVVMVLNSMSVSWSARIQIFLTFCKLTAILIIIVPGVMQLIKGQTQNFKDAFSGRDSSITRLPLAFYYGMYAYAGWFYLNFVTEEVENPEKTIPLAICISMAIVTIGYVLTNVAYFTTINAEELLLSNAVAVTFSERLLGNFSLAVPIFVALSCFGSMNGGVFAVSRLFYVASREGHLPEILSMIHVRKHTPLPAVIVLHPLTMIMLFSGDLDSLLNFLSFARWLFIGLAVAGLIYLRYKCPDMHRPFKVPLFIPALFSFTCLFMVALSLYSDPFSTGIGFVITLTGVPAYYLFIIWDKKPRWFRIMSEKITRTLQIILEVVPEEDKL
# No constants are given. Whether binding was seen depends on the method and setting. Binding seen in cells or lysates may run through a third protein. Some binding calls cover weakened binding; strength is not graded here.
# Molecular target: FLAG-SLC7A11 (UniProt Q9UPY5)
# Test: co-IP; HEK293 cells transfected with FLAG-SLC7A11, IP-IB of endogenous receptor proteins (Fig. 2A)
row,Binder,binding
1,"endogenous KCTD10 (protein, UniProt Q9H3F6 1-313) MEEMSGESVVSSAVPAAATRTTSFKGTSPSSKYVKLNVGGALYYTTMQTLTKQDTMLKAMFSGRMEVLTDSEGWILIDRCGKHFGTILNYLRDGAVPLPESRREIEELLAEAKYYLVQGLVEECQAALQNKDTYEPFCKVPVITSSKEEQKLIATSNKPAVKLLYNRSNNKYSYTSNSDDNMLKNIELFDKLSLRFNGRVLFIKDVIGDEICCWSFYGQGRKIAEVCCTSIVYATEKKQTKVEFPEARIYEETLNILLYEAQDGRGPDNALLEATGGAAGRSHHLDEDEERERIERVRRIHIKRPDDRAHLHQ",binds
2,"endogenous KLHL13 (protein, UniProt Q9P2N7 1-655) MPLKWKTSSPAIWKFPVPVLKTSRSTPLSPAYISLVEEEDQHMKLSLGGSEMGLSSHLQSSKAGPTRIFTSNTHSSVVLQGFDQLRLEGLLCDVTLMPGDTDDAFPVHRVMMASASDYFKAMFTGGMKEQDLMCIKLHGVSKVGLRKIIDFIYTAKLSLNMDNLQDTLEAASFLQILPVLDFCKVFLISGVTLDNCVEVGRIANTYNLTEVDKYVNSFVLKNFPALLSTGEFLKLPFERLAFVLSSNSLKHCTELELFKATCRWLRLEEPRMDFAAKLMKNIRFPLMTPQELINYVQTVDFMRTDNTCVNLLLEASNYQMMPYMQPVMQSDRTAIRSDTTHLVTLGGVLRQQLVVSKELRMYDEKAHEWKSLAPMDAPRYQHGIAVIGNFLYVVGGQSNYDTKGKTAVDTVFRFDPRYNKWMQVASLNEKRTFFHLSALKGYLYAVGGRNAAGELPTVECYNPRTNEWTYVAKMSEPHYGHAGTVYGGVMYISGGITHDTFQKELMCFDPDTDKWIQKAPMTTVRGLHCMCTVGERLYVIGGNHFRGTSDYDDVLSCEYYSPILDQWTPIAAMLRGQSDVGVAVFENKIYVVGGYSWNNRCMVEIVQKYDPDKDEWHKVFDLPESLGGIRACTLTVFPPEETTPSPSRESPLSAP",no binding
